For one molecule, binding results are on record in paper PMC5388395.

These are yes or no findings as the source states them, for the method shown. Binding seen in cells or lysates may run through a third protein. Some results given as binding are weak or reduced against the parent protein; the word gives no strength. Sequences can lack the tags named with a protein.

Holding throughout (assay): co-IP; extracts of cells expressing a Tap-tagged SAGA subunit and HA-tagged Not5 on IgG sepharose, TEV elution, western blot with CBP or HA antibodies; untagged cells as control
In general terms: In western blotting, separated proteins are transferred to a membrane and probed.

Test [1] has as its target T1, Ada1-TAP (S. cerevisiae) (UniProt Q12060).
T1 sequence: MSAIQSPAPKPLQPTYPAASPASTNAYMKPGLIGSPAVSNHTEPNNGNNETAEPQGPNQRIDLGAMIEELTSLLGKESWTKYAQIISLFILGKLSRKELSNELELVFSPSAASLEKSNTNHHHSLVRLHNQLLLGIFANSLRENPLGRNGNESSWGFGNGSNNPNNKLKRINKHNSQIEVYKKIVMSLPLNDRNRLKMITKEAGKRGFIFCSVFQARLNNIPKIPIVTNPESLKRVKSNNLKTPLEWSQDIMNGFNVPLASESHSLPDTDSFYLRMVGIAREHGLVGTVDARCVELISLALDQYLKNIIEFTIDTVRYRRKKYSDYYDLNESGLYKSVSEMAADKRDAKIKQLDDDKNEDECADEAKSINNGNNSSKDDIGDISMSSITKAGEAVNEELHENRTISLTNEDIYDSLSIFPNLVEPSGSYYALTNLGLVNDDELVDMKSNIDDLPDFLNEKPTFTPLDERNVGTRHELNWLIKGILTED

For test [2], the target named is T2, Ada2-TAP (S. cerevisiae) (UniProt Q02336).
T2 sequence: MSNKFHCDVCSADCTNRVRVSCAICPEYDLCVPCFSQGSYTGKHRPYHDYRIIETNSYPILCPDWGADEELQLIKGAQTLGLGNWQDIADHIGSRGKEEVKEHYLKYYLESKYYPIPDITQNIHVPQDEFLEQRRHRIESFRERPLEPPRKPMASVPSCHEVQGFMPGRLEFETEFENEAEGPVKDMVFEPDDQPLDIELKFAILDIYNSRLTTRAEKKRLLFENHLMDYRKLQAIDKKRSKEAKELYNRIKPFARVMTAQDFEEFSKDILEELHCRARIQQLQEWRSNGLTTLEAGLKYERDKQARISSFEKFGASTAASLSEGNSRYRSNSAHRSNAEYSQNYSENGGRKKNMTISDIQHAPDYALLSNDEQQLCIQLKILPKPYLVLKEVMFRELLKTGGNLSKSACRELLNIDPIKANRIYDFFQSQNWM

Test [3] addresses T3, Spt20-TAP (S. cerevisiae) (UniProt P50875).
T3 sequence: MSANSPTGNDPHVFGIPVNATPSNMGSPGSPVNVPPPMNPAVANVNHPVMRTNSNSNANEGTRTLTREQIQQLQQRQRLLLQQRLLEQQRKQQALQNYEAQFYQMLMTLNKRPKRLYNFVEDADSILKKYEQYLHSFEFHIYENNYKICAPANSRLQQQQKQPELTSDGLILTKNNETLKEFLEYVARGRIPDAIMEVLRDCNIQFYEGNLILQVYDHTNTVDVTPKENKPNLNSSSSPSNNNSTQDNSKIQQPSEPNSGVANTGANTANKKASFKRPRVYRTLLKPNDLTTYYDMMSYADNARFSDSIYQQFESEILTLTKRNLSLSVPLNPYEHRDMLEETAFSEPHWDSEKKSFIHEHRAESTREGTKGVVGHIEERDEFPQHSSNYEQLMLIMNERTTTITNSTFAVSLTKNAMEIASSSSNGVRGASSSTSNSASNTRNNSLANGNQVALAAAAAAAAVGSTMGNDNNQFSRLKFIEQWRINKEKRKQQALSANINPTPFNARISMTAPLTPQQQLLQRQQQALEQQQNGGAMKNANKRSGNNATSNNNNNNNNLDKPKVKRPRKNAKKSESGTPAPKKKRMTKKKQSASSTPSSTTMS

Test [4] has as its target T4, Spt8-TAP (S. cerevisiae) (UniProt P38915).
T4 sequence: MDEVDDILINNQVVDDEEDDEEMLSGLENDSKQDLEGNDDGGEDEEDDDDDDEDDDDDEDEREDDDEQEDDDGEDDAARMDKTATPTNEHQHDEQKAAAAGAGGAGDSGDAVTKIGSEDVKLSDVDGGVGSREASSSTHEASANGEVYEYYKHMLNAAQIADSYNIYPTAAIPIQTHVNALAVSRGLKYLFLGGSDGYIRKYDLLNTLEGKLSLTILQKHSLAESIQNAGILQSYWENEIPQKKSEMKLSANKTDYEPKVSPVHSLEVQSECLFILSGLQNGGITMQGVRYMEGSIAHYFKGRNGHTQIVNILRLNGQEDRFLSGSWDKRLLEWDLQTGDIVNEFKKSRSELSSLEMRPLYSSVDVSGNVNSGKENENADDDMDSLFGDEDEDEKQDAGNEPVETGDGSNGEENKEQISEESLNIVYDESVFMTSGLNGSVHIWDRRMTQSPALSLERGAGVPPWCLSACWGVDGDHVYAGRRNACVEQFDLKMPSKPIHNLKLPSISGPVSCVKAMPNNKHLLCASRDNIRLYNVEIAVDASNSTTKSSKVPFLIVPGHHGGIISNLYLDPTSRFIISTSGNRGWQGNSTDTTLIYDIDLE

B1: Not5-HA (protein, UniProt Q12514 1-560)
chain: MSQRKLQQDIDKLLKKVKEGIEDFDDIYEKFQSTDPSNSSHREKLESDLKREIKKLQKHRDQIKTWLSKEDVKDKQSVLMTNRRLIENGMERFKSVEKLMKTKQFSKEALTNPDIIKDPKELKKRDQVLFIHDCLDELQKQLEQYEAQENEEQTERHEFHIANLENILKKLQNNEMDPEPVEEFQDDIKYYVENNDDPDFIEYDTIYEDMGCEIQPSSSNNEAPKEGNNQTSLSSIRSSKKQERSPKKKAPQRDVSISDRATTPIAPGVESASQSISSTPTPVSTDTPLHTVKDDSIKFDNSTLGTPTTHVSMKKKESENDSEQQLNFPPDRTDEIRKTIQHDVETNAAFQNPLFNDELKYWLDSKRYLMQPLQEMSPKMVSQLESSLLNCPDSLDADSPCLYTKPLSLPHPTSIFFPNEPIRFVYPYDVPLNLTNNENDTDNKFGKDSKAKSKKDDDIYSRTSLARIFMKFDLDTLFFIFYHYQGSYEQFLAARELFKNRNWLFNKVDRCWYYKEIEKLPPGMGKSEEESWRYFDYKKSWLARRCGNDFVYNEEDFEKL
Consider B1, for which the binding entry in test [1] was “no binding”; in test [2], “binds”; in test [3], “binds”; in test [4], “no binding”.
